Laboratory results published in patent US12655123B2, “Heteroaryl compounds, solid forms, preparation methods and uses thereof” (InventisBio Co., Ltd., priority 2022, dated 2026).
Some entries share one result that the patent states for a list of compounds.

Assay: Solubility in bio-relevant media (FaSSIF, FeSSIF, SGF)
Format: physicochemical
Description: High Performance Liquid Chromatography (HPLC): a representative HPLC method is shown below, which can be used, for example, to analyze the purity, solubility, and stability of Compound 1 herein.

| Structure (SMILES) | solubility in bio-relevant media |
| --- | --- |
| [2H]C([2H])([2H])NC(=O)c1nnc(NC(=O)C2CC2)cc1Nc1ncc(Cl)cc1S(C)(=O)=O [Form III] | < 20 µg/mL |
| [2H]C([2H])([2H])NC(=O)c1nnc(NC(=O)C2CC2)cc1Nc1ncc(Cl)cc1S(C)(=O)=O [phosphate Form E] | < 20 µg/mL |
